The values that follow come from paper PMC7977447.

By UniProt entry, the sequences of proteins in these tests, tags left out. Where a name states a change or a piece, a line headed by the entry shows the natural chain unless it says otherwise.
UniProt Q8K4Z2: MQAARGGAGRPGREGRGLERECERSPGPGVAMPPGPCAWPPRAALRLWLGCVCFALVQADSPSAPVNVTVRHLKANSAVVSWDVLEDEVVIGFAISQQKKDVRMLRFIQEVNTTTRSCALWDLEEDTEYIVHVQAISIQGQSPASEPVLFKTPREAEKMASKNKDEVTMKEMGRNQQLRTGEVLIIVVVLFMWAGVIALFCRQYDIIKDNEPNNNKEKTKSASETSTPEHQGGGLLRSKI

This test addresses Flag-tagged wild-type Fndc5 (fibronectin type III domain containing 5) (UniProt Q8K4Z2). Put plainly: co-IP; Flag-Fndc5 and myc-SIRT2 co-transfected into HepG2 cells; lysis in radioimmunoprecipitation assay buffer, protein A/G-agarose beads, immunoblotting. (Immunoblotting shows a protein as a band on a membrane.)

Results are given in words; binding and its absence hold for the method and conditions named. Binding seen in cells or lysates may run through a third protein. Binding calls can cover weak binding; strength is not graded here. Sequences can lack the tags named with a protein.

B1: Myc-tagged SIRT2 (enzyme, UniProt Q8IXJ6 1-389)
chain: MAEPDPSHPLETQAGKVQEAQDSDSDSEGGAAGGEADMDFLRNLFSQTLSLGSQKERLLDELTLEGVARYMQSERCRRVICLVGAGISTSAGIPDFRSPSTGLYDNLEKYHLPYPEAIFEISYFKKHPEPFFALAKELYPGQFKPTICHYFMRLLKDKGLLLRCYTQNIDTLERIAGLEQEDLVEAHGTFYTSHCVSASCRHEYPLSWMKEKIFSEVTPKCEDCQSLVKPDIVFFGESLPARFFSCMQSDFLKVDLLLVMGTSLQVQPFASLISKAPLSTPRLLINKEKAGQSDPFLGMIMGLGGGMDFDSKKAYRDVAWLGECDQGCLALAELLGWKKELEDLVRREHASIDAQSGAGVPNPSTSASPKKSPPPAKDEARTTEREKPQ
As to B1, the binding entry is “binds”.
